Test results published in article PMC11213209.
These are yes or no findings as the source states them, for the method shown. Binding seen in cells or lysates may run through a third protein. Some entries that bind do so weakly or less than the wild type. Where a sequence is shown, tags or fusion partners need not be part of it.

How the values were obtained:
[1] = target: mitochondrial thioredoxin reductase (TXNRD2), V5-tagged (human) (UniProt Q9NNW7); test: condition: only cells treated with erastin (2.5 μM, 18 hours); co-IP; HT-1080 cells overexpressing TXNRD2 and TXN2, treated with erastin alone (2.5 μM, 18 hours), lysed with NEM
[2] = target: mitochondrial thioredoxin reductase (TXNRD2), V5-tagged (human) (UniProt Q9NNW7); test: co-IP; HT-1080 cells overexpressing TXNRD2-V5 and TXN2-myc, lysed with NEM; untreated, supplemented with CoA (100 μM, 18 hours), or erastin (2.5 μM, 18 hours) combined with CoA (100 μM)

binding [1]: no binding
binding [2]: binds
B1: mitochondrial thioredoxin (TXN2), myc-tagged (protein, UniProt Q99757 60-166)
chain: TTFNIQDGPDFQDRVVNSETPVVVDFHAQWCGPCKILGPRLEKMVAKQHGKVVMAKVDIDDHTDLAIEYEVSAVPTVLAMKNGDVVDKFVGIKDEDQLEAFLKKLIG
